Data: publication PMC7395098

Molecular target: ZjFT (Ziziphus jujuba (Chinese jujube))
Assay: two-hybrid; tested proteins fused to Gal4 BD (pGBKT7), screening proteins fused to Gal4 AD (pGADT7), cotransformed into yeast strain AH109; spotted on SD -LW, -LWH, -LWH + 7 mM 3-AT and -LWAH; growth monitored after 3 days at 28 °C

binding: binds
Substance: ZjCO5 (from UniProt A0A6P4B574)

Results are given in words; binding and its absence hold for the method and conditions named. Binding can be weak; no strength is given.
